Reference: paper PMC11319772
No constants are given. Whether binding was seen depends on the method and setting. Binding seen in cells or lysates may run through a third protein. Some results given as binding are weak or reduced against the parent protein; the word gives no strength.

By UniProt entry, the sequences of proteins in these tests, tags left out.
UniProt P42227: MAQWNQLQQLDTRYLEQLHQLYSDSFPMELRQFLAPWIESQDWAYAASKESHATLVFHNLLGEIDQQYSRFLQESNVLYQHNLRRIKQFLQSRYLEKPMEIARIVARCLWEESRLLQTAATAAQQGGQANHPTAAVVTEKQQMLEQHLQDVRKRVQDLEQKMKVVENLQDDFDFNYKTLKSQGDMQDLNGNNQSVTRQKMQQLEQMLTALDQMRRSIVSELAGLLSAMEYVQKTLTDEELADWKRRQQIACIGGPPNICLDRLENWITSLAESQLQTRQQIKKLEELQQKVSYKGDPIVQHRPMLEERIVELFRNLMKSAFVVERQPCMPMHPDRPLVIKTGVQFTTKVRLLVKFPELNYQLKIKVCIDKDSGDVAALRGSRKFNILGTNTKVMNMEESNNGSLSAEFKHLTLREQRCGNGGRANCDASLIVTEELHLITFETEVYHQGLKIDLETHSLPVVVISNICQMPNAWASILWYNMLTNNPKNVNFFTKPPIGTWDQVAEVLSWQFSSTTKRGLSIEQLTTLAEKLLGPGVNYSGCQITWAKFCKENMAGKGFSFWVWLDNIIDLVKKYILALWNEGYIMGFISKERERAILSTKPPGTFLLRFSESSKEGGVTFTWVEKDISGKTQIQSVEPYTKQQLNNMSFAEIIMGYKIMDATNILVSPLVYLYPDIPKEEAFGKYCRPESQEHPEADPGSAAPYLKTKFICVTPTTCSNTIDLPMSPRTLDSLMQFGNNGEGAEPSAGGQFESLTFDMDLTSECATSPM

Target: T1, IRAK-M (mouse (endogenous in bone marrow neutrophils)) (UniProt Q8K4B2)
T1 sequence: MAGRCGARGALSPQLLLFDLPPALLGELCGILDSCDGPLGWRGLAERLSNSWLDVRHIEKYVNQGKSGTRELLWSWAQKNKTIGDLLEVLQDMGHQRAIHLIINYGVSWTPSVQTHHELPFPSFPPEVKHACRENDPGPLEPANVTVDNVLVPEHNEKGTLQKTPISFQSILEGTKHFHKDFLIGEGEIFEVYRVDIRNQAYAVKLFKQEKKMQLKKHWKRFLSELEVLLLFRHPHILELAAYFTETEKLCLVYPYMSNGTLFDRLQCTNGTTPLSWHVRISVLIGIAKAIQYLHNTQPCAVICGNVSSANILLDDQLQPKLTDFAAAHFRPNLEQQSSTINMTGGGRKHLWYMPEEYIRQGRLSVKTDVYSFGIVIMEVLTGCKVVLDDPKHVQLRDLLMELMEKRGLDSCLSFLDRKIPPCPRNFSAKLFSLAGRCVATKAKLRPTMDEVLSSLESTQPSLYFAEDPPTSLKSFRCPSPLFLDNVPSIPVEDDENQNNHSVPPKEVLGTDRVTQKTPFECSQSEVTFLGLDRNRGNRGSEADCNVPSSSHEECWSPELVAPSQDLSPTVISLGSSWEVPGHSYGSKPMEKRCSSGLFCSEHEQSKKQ
Assay: co-IP; whole-cell lysates of WT bone marrow neutrophils in Nonidet P40 lysis buffer; immunoprecipitation with 10 ug anti-IRAK-M antibody in 500 ul lysate, 4 °C overnight, Protein A/G beads; immunoblotting for STAT3 and STAT1

- binding: binds
Substance: STAT3 (from UniProt P42227 1-770)
